For this experiment, the target named is T1, E9PGC5 and related entries (UniProt Q15262).
T1 sequence (whole entry): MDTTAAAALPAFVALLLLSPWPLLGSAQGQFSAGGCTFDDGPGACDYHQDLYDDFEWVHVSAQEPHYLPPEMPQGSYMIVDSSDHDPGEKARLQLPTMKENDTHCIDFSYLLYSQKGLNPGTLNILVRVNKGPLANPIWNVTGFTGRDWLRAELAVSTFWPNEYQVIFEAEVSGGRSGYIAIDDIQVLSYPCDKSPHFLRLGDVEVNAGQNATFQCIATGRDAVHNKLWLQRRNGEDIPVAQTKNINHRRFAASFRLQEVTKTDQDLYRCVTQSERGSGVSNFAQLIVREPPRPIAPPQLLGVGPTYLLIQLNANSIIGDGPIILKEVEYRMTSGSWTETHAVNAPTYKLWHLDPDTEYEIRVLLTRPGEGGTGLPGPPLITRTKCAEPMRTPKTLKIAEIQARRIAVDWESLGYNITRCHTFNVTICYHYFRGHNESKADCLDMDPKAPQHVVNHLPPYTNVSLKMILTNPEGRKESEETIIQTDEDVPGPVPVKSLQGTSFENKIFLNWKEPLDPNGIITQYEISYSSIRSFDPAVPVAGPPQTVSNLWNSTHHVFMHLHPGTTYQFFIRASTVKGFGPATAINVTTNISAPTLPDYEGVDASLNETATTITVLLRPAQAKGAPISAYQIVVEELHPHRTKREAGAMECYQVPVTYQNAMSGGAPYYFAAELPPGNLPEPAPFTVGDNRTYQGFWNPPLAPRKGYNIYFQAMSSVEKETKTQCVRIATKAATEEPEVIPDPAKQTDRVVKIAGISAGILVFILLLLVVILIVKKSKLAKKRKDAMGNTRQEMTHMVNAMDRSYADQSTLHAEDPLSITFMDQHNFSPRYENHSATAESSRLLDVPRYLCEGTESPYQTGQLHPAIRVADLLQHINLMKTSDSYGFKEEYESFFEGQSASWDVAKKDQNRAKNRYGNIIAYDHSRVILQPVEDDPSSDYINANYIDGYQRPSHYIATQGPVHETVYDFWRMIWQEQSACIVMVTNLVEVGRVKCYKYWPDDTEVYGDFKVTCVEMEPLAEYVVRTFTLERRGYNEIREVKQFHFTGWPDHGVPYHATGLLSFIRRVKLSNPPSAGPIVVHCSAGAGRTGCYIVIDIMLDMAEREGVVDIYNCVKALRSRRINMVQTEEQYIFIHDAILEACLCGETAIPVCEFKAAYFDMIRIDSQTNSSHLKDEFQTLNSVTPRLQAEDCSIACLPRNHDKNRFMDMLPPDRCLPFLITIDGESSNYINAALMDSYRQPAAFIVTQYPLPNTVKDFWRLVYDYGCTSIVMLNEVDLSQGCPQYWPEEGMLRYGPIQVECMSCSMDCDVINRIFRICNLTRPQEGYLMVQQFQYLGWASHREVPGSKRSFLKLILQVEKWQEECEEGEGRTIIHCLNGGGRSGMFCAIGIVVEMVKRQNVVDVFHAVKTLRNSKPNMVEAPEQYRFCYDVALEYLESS
The experiment can be described thus: NP40-soluble protein abundance relative to vehicle (solubility fold change) (ratio); higher = more soluble protein in presence of GTP. The method, then:
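Solubility proteome profiling in Jurkat crude lysate. Lysate was treated with Mg-GTP (0.1-10 mM) for 10 min at room temperature and 3 min at 37 °C, then solubilised with 0.8% NP40 and benzonase, followed by ultracentrifugation. Proteins were quantified by TMT10 LC-MS/MS; the value is the NP40-soluble abundance relative to the NP40-processed vehicle, from 3 independent experiments.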

± gives the standard deviation of the averaged measurements. The list shows a part of the results.

Among the data in the supplement of paper PMC6411743 are NP40-soluble protein abundance values, retold here.

Regarding `Nc1nc2c(ncn2[C@@H]2O[C@H](COP(=O)(O)OP(=O)(O)OP(=O)(O)O)[C@@H](O)[C@H]2O)c(=O)[nH]1` [guanosine triphosphate], the NP40-soluble protein abundance (concentration: 0.1mM) is 0.9978 ± 0.0079; the NP40-soluble protein abundance (concentration: 0.5mM) was 0.975 ± 0.018; the NP40-soluble protein abundance (concentration: 1mM) worked out at 0.992 ± 0.033; the NP40-soluble protein abundance (concentration: 2mM) was found to be 0.98 ± 0.035; the NP40-soluble protein abundance (concentration: 4mM) was found to be 0.978 ± 0.022; the NP40-soluble protein abundance (concentration: 6mM) came to 0.92 ± 0.023. Besides, the NP40-soluble protein abundance by setting is: (concentration: 8mM) 0.958 ± 0.018; (concentration: 10mM) 0.942 ± 0.021.
